The values below come from publication PMC2956695.

These are yes or no findings as the source states them, for the method shown. Binding seen in cells or lysates may run through a third protein. These calls come from enrichment with a bait or labelling near it, and not all partners need be listed. Tags and fused reporters may be left off the sequences shown.

This test addresses T1, Slm9-3XFLAG (S. pombe) (UniProt O74309).
T1 sequence: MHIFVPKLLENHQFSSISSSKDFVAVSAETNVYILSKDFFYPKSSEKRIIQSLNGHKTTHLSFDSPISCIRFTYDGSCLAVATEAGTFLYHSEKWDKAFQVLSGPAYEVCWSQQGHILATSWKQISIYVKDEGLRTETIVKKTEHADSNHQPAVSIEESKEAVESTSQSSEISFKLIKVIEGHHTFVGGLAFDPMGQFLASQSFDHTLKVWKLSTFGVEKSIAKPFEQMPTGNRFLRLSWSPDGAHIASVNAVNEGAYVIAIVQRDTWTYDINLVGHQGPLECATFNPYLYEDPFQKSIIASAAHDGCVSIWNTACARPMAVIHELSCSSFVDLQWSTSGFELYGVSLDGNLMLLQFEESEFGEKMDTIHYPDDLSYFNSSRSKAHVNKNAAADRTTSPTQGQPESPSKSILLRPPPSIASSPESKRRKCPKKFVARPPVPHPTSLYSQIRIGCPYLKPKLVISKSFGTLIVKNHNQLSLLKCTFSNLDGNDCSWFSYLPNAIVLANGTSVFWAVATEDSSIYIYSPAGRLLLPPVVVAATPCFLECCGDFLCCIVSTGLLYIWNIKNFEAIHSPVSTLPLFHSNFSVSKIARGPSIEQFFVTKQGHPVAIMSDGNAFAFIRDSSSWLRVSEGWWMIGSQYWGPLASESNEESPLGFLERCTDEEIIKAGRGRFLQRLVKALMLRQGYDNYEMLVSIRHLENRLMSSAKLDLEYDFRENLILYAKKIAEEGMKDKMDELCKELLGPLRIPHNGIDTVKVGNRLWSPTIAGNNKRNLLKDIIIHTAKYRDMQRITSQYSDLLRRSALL
Put plainly: affinity purification with mass spectrometry; extracts from 5 g of cells expressing Slm9-FLAG, Dynabeads coupled to anti-FLAG M2 antibody for 15 mins, Benzonase treatment, on-bead tryptic digestion, LC-MS/MS; listed proteins found in at least two independent purifications and absent from four control purifications from untagged cells.

B1: Atp2, F1-ATPase beta subunit (protein, UniProt P22068 45-525)
chain: ASTEAAKHNKGSIKQVIGAVVDCQFEDADSLPSILNALEVKLPDNKRLVLEVAQHVGENTVRTIAMDGTEGLVRGTAVIDTGSPISIPVGPGTLGRIMNVIGEPVDERGPIKAVKYSPIHADAPSFEEQSTTPEILETGIKVVDLLAPYARGGKIGLFGGAGVGKTVFIQELINNIAKAHGGYSVFTGVGERTREGNDLYREMQETGVIKLEGESKAALVFGQMNEPPGARARVALTGLTVAEYFRDIEGQDVLLFIDNIFRFTQAGSEVSALLGRIPSAVGYQPTLATDMGAMQERITTTKKGSITSVQAVYVPADDLTDPAPATTFAHLDATTVLSRSISELGIYPAVDPLDSKSRMMDPRILGEEHYNLAGSVQQMLQEYKSLQDIIAILGMDELSEADKLTVERARKVQRFLSQPFAVAEVFTGIEGRLVSLKDTIRSFKEILEGKHDSLPESAFYMVGSIDDAVKKAEKIAQELAA
B1: the binding result is “binds”.

B2: Tef3, translation elongation factor (protein, UniProt O94489 1-1047)
chain: MSAKSENKQSVKALEELLKHLTVCDAAEEADAAKALASFVNGPIEEQDAPSQVFSAISKQLNDKNATARERVLKGLEAVANHGSVAADVEPYLVELLPAVIAKVADKQNAVRDAAIAASKAIVRCTTPYAVKAIVPSVLESIHTTGKWNEKMNSLQLLDVLVEVAPSQLSYSLPQIIPVVSESMWDTKAEVKKQSKETMTKVCTLIANADIDRFIPELINCIAHPEEVPETIHSLGATTFVTEVQAPTLSIMVPLLARGLNERSTPIKRKTAVIIDNMSKLVEDPQVVAPFLPKLLPGLYHIKDTIGDPECRSVVQRAITTLERVGNVVDGKIPEVSTAANPEVCLETLKAVLGEIKVPTNEEVIAKYVANIAAQLVEEKDNENESWVLNITPYLTAFIDEAHIHKIVEQLRTRSIAKIPGGASHAEEEEEGEDLCNCEFSLAYGAKILLNRTRLRLKRGRRYGLCGPNGSGKSTLMRAIVNGQVEGFPTHLRTVYVEHDIDESEADTPSVDFILQDPAVPIKDRDEIVKALKENSFTDELINMPIGSLSGGWKMKLALTRAMFKNPDILLLDEPTNHLDVVNVAWLENFLVNQKDVSSIIVSHDSGFLDHVVQAIIHYERFKLRKYLGNMSEFVKKVPSAKSYYELGASEMEFKFPEPGFLEGVKTKQRAIIKVQHMSFQYPGTSKPQLNDISFQVSLSSRIAVIGPNGAGKSTLIKVLTGELLPTVGEIYQHENCRIAYVAQAAFTHLGHHPDKTPSEYIQWRFQSGEDLEAMDKASRVISEADEEAMKNKIFKIEGTQRKILGIHSRRKLKNSYEYECSFLVGENIGMKSERWVPMMSSDNAWLPRGELMETHAKMVAEVDRAEALKSGQFRPLVRKEIEEHCSLLGLDAELVSHSRIKGLSGGQKVKLVLAACTWLRPHVIVLDEPTNYLDRDSLGALSKGLKNFGGGVVLVTHSREFTEGLTEEVWAVNNGHMTPSGHNWVSGQGSGPRIQEKEEGDTFDAFGNKIEKAKKAKKLTGAELRKKKKERMARRKAGLEVSDDEL
Consider B2, for which the binding entry is reported as “binds”.

B3: Mts4, 19S proteasome regulatory subunit (protein, UniProt P87048 1-891)
chain: MSSKDISSKSPSGNDALNDKKGTKTSETNDRNSTNNTKERDELEDLSEEDLQLKNDLELLVQAVQDATPELVGSSLTQLKEIIRTSTSSMTAVPKPLKFLRPHYFTLVKIYDSWPQSPQKTQLADILSVLGMSYSNTSKHESLKYRLQGVTTDPSLWGHEYVRHLASEIEEEFASRQEEEAPTDDLMELALTIVPFFLTHNAEADAIDLLQELGAIEKVVPFVELDNASRVCLYITSCVNLLPFPEDVAMLRTAHAIYRKFDQLTQALNVAIRLDDMSLIKEDCEAATDPLLKKQMSYMLARQQIPMDMGDEELNDALNNTHLSDHFHYLGKELNLMDPKVPEDIFKTHLEVARTGLGASGVYSAKQNLANTFVNALVNAGYSNDRLILVDDEKTSWIYKNKESGLISATASIGLLQLWNVDMGLSLLDKYLYSSEENTKAGALLGIGVTNVAVRNEADPAMAILSEYLETGSVKLRASAILGLGLAYSGANREDLLDMLSPIVTDTDCPMQLSCLAALSLGLIFVGTCNGDVASTILQTLMEREESAQNDQWGRFMALGLALLFNGKQDLADATVETLKAIEGKIARQAEILVDICSYAGTGNVLHIQKLLHICSEPPSDDAKESETTIQTFAALGVATIAMGEDIGAEMVLRHFDHMMHYGEPSIRKAIPLALGLLSASNPQMRIFDTLSRYSHDNDLDVAYNAIFAMGLVGAGTSNARLAQLLRQLASYYHKESNALFMVRIAQGLLYLGKGTMTLNPYHTERQILGQTAFAGLMTVVLAMLDANTFVLDTSHWLLYAITLAIRPRMLITLGEDGQYLPVSVRVGQAVDVVGQAGRPKVITGWVTHTTPVLLHHNERAELATEAYTPLTSLEGIVILKKNTEDIEMTA
B3: the binding entry was “binds”.

B4: Vrs2, valine-tRNA ligase (protein, UniProt O75005 1-980)
chain: MADKGCEAAQSKDSSAPGSGEPRPKTEKELERERQKAAKLEKYHAKLAAKKAKEEARKPKLDKKAKIASPVAEYVEKTTPGEKKVLQDLDSPALKSYNPKAVESAWYDWWVKSGFFEPEFGPDGKPKKEGVFVITSPPPNVTGALHIGHALTIAIQDSLARWNRMLGKTVLFLGGFDHAGLSTQSVVEKKLWYTQKKTRHDYPRDKFVDIVWEWKEEYHNRIKNQMSRLGGSFDWTREAFTMDENLSRAVVETFVRLHEENIIYRANRLVNWCTALQTTLSNLEVENVDVPGRTLLKVPGYDEPVEVGVLTSIAYAVEGSDERIVIATTRPETLLGDTAVAVHPQDPRYKHLHGKFVKHPFCNRSIPIICDDIIVDMEFGTGAVKITPAHDPNDYEVGKRHNLEFINIFTDDGLLNENCGEFAGMKRFTARVKVVERLKELGLFVGTKENPMVIPLCGKTSDIIEPVMKPQWWVNQKEMAAAAAEVVKSGEIEIAPDMSRREFIRWMENIQDWCISRQLWWGHRIPAYFVNLADEPSQDRSEGRYWVTGRTLEQAEEKAKAAFPGKSFTLEQDEDVLDTWFSSGLWPFSTLGWPKDTSDYENFYPTTLMETGWDILFFWIARMVMLGLKLTGKIPFKRVFCHALVRDAQGRKMSKSLGNVVDPIDVIEGISLQALHDKLLVGNLDSREVEKAKKGQRLSYPKGIPQCGTDALRFTLCSLTTGGRDLNLDILRVEGYRKFCNKLYNATKFALGRLGSNFVPNKTADLTGNESLVEKWIFHRLNIAAAAMNKNMEEMNFLQATSAVHQFWLYELCDVYIENSKYLLSDGTEVQQESAKQTLYTVLDNALRLMHPFMPYVTEEMWQRLPRRPGDKTQTIVKAAFPVERVDYSNEIAAKYYESIITVVHSTRSMMAENGIKSDAVVYIHPDEEHSKLITSESASIQSLIKKCKTLSIVDNTFDSDKCVKNEVLEGSTIFLERNN
In the case of B4, the binding entry is recorded as “binds”.

B5: Ilv1, acetolactate synthase catalytic subunit (protein, UniProt P36620 141-669)
chain: AQAYSRVTKKPGVVLVTSGPGATNVITPIADALADGTPLVVFSGQVATSAIGSDAFQEADMVGISRSCTKWNVMVKDVADLPRRIDEAFEIATSGRPGPVLVDLPKDVTASVLKEPIPILSSVPSMNRRMKEVLEEGSKNVTAKIDRVANLLKLAKKPVIFCGHGVLANPECPTLLRKFSERLQIPVTTSLLGLGAVDERSDLSLHMLGMHGSGYANMAMQEADLILALGVRFDDRVTGNVSLFAPQARLAAAEERGGIIHFDISPKNIGKVVQPTEAIEGDVYESLKLLDSATKNIKIPSRFDWLSQIQTWKERFPFTFTRSAPGELVKPQEVIQELDKQTSDIKDKVTITTGVGAHQMWAATFYRWTKPSSLVTSGGLGTMGFGLPAAIGASVAAPKDIVIDIDGDASFSMTGMELATVRQFDIPVKILILNNEEQGMVTQWQNLFYEKRYSHTHQKNPNFVKLADAMGIKALRVEKREDLAKKMKEFLSTKGPVLMEVLVAQKEHVYPFVPGGKALHQFILHESLS
On to B5, for which the binding result is reported as “binds”.

B6: Fba1, fructose-bisphosphate aldolase (protein, UniProt P36580 1-358)
chain: MGILDIVPTGVITGDNVLKLFTYAREHGFAIPAINVTSSSTAIAALEAAREARSPIILQTSNGGAHFFAGKESSNEGQKASIAGSIAAAHYIRSIAPFFGVPVVMHSDHCAKKLLPWMDGMFEADEAYFKIHGEPLFSSHMLDLSEEPKKENIAQVKEYCKRAVPMKIWIEMEIGITGGEEDGVDNSHVSHTELYTQPEDIWDVYRELSSVTPYFSIAAAFGNVHGVYKPGNVKLQPALLGQHQAYVKEQLKTTNDKPVFFVFHGGSGSSVNEFRTGIKCGVVKVNIDTDTQFAYVEGVRDYVLKYKDYLMTPVGNPEGADKPNKKKFDPRVWIHEGEKTMTKRVLTALEDFYTVNTL
In the case of B6, the binding result is recorded as “binds”.

B7: Pss1, Hsp70 protein (protein, UniProt O59838 1-720)
chain: MSSRTNVVGIDFGNSKTVIAVARNRAIDVIVNEVSNRSTPSLVSYGERSRFLGEAAKSAEASNFRNTVGSLKRLAGRTYDDPEIKDIESNFISAKLTEVDGFVGAKVQYLNEETAFSNIQLIAAYFTKIKAIAEAELIGSVSDVVISIPAWFTDIQRRALLEAANIAGLNPLRLMNDNAAAALTYGITKTDLPEPESPRRVAIVDFGHSNYSVSIVEFSRGQFHIKSTVCDRNLGSRNMDKALIDYFAAEFKEKYKIDVLSNPKATFRLATAVERLKKVLSANANAPLNVEMIMNDIDASSFIKRSDFEELIKPLLERLTPPIEKALELAGIKKEDLYSIEMVGGCTRVPIVKEVIANYFGKGLSFTLNQDEAVARGCALSCAILSPVFRVREFHVHDVTTYPITFSWEPIPENPEEDSSLEVFSEGNPIPSTKILTFYRKAPFKLLAAYSKEAQLPGSIKQNIAQYLINDVVPNKDGDLSIVKIKVRLDLHGILVVEQAYIVEEQEVEEPVETSPEEEAEKKTDEPVKMRKVKKLVKVADLSVSVQEDRLPTEVLEKYREAEHQMIATDKLVAETVDRKNALEEYIYDTRAKLDDIYAPFTNEEESSKFKEMLTKAEDWLYEEGEDTTKAVYTAKLEDLMRVGGPIRQRYLDAEEAKRQKVQAEREAAKAATKSEAEKQKPSGKFEEGTGGRAPPPPPAEEVAPENEEVETMEIDEQKE
With B7, the binding entry is “binds”.
